Our source for the inhibition zone (IZ) values is ChEMBL document CHEMBL1140759, “Synthesis, anti-Toxoplasma gondii and antimicrobial activities of benzaldehyde 4-phenyl-3-thiosemicarbazones and 2-[(phenylmethylene)hydrazono]-4-oxo-3-phenyl-5-thiazolidineacetic acids” (Bioorg Med Chem, 2008).

The test system of this assay is Candida albicans. The assay is described as follows: Antimicrobial activity against Candida albicans at 100 ug/disc. The format is functional, organism-based.

In turn, NYSTATIN displayed an inhibition zone (IZ) of 26 mm.
